About 6,100 (1.1%) of roughly 580,000 compounds were called active. Inconclusive results, whose numbers are uncertain, are shown with a selection of clear calls. Calls follow the shape of the dose curve; as a rule, active = well fitted inhibition curve with a large enough effect; inconclusive = small, poorly fitted or top-dose-only effect, or another doubt; inactive = no such curve, though single readings can be large or run the other way. Potencies of inconclusive entries are doubtful fits and often do not repeat.
Target: Polyunsaturated fatty acid lipoxygenase ALOX12 (Homo sapiens) (UniProt P18054)
Experiment: Primary qHTS assay for inhibitors of human arachidonate 12S-lipoxygenase (ALOX12): Round 2
Conditions: purified 12hLO, xylenol orange hydroperoxide absorbance; series mostly up to 108 µM
Summary of the method: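 Purified human 12hLO at 150 nM in 25 mM Hepes, 0.01% Triton X-100, pH 7.0, preincubated 15 min at room temperature with compound. Reaction started with 40 uM arachidonic acid, 30 min at room temperature. Hydroperoxide measured by Fe-xylenol orange, 573/405 nm absorbance ratio.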
Potency is read from the fitted curve at half-maximal effect.

Sequences of proteins named here, by UniProt entry; tags and fusion partners are left off. A change or cut given only in a name is not applied to a line headed by its entry.
UniProt P18054: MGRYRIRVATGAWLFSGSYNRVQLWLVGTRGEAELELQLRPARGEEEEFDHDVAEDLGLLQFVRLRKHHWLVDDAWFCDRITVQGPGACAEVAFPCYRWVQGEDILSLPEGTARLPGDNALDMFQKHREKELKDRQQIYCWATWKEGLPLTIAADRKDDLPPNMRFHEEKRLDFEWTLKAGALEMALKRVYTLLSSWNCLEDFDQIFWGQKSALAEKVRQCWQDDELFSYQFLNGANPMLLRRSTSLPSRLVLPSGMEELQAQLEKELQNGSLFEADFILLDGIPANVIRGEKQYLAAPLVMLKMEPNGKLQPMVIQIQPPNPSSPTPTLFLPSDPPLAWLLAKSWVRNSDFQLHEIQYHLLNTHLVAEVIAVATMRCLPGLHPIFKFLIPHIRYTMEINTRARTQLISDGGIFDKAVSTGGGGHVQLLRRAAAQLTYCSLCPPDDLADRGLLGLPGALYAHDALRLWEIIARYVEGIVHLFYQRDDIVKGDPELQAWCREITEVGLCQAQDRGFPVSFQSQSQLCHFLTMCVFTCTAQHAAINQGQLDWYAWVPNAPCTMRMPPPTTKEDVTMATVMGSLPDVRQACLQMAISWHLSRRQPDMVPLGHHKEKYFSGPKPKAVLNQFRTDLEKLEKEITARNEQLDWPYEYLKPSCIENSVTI

| Compound | Potency |
| --- | --- |
| CN(/N=C/c1ccncc1)C1=NS(=O)(=O)c2ccccc21 | inconclusive: 50.1 µM [inhibitor, partial curve, poor fit] |
| CSc1cnn(Cc2ccccc2)c(=O)c1SCc1ccccc1 | inconclusive: 44.7 µM [inhibitor, partial curve] |
| CCOC(=O)Cc1csc(NC(=O)c2cc3c(s2)CCCC3)n1 | inactive |
| O=C(NC[C@H]1O[C@@H](CO)[C@@H](O)[C@H]1N1CCN(c2ccccn2)CC1)c1ccco1 | inconclusive: 8.91 µM [inhibitor, full curve, poor fit] |
| CC1Sc2ccc(C(=O)OCC(=O)NCc3ccccc3)cc2NC1=O (configuration not stated) | inconclusive: 56.2 µM [inhibitor, partial curve, poor fit] |
| COc1cccc(C(=O)N2c3nc(-c4ccco4)nn3C3(CCCCC3)[C@@H]3CCCC[C@@H]32)c1 | inactive |
| COc1cc2[nH]c(=S)n(CCN3CCOCC3)c(=O)c2cc1OC | inactive |
| COC(=O)C1CCC/C(=C\c2ccc(Cl)cc2)C1=O (configuration not stated) | inactive |
| Cc1ccc(NC(=O)CNS(=O)(=O)c2cccs2)cc1F | inconclusive: 44.7 µM [inhibitor, partial curve, poor fit] |
| NCC1CCN(CCO)C1 (configuration not stated) | inconclusive: 0.1 µM [inhibitor, full curve, poor fit] |
| Cc1cc(NS(=O)(=O)c2ccc(NC(=O)/C=C/c3cccc(Cl)c3)cc2)no1 | inconclusive: 44.7 µM [inhibitor, partial curve] |
| CC1CCN(C(=O)COc2coc(CN3CCc4ccccc43)cc2=O)CC1 | inconclusive: 50.1 µM [inhibitor, partial curve, poor fit] |
| COc1ccc(N2CC(C(=O)NCCNC(=O)c3cn(C)c4ccccc34)CC2=O)cc1 (configuration not stated) | inactive |
| CCN(CC)c1ccc(NC(=O)CCNS(=O)(=O)c2ccc3c(c2)CCC(=O)N3)c(C)c1 | inactive |
| COc1cccc(NC(=O)Cn2c(=O)cc(C)c3c(C)nn(-c4cccc(F)c4)c32)c1 | inconclusive: 112 µM [inhibitor, partial curve, poor fit] |
| CCCCc1ncc(-c2c(-c3ccccc3)ncn2CCCn2ccnc2)[nH]1 | inactive |
| O=Cc1c(Br)cc(Br)c(O)c1Br | inactive |
| N#Cc1c(N2CCCC(O)C2)nc(N)c2c(N)nc3c(c12)CC(=O)N3C12CC3CC(CC(C3)C1)C2 (configuration not stated) | inactive |
| COc1cc(/C=C(\C#N)C(=O)Nc2ccccn2)ccc1O | inconclusive: 39.8 µM [inhibitor, partial curve, poor fit] |
| C#Cc1ccc([C@H]2C=C(C(=O)OCC=C)O[C@@H](OCCCCO)C2)cc1 | inconclusive: 50.1 µM [inhibitor, partial curve, poor fit] |
| CCc1ccc2[nH]c3nc(SCCN4CCOCC4)nnc3c2c1 | inactive |
| CCN(CC)c1nc2c(-c3cccc(Br)c3)nnn2c2ccccc12 | inactive |
| COc1ccc(CNC(=O)c2ccc(NC(=O)N3CC4CCCN4c4ccccc43)cc2)cc1 (configuration not stated) | inconclusive: 50.1 µM [inhibitor, partial curve, poor fit] |

| Compound | Potency |
| --- | --- |
| CCN1CCN(C(c2ccc(OC)cc2)c2c(O)cc(C)n(Cc3ccco3)c2=O)CC1 (configuration not stated) | inconclusive: 39.8 µM [inhibitor, partial curve, poor fit] |
| Cn1cc(-c2cnc3[nH]cc(CC(=O)Nc4cccc(OC(F)(F)F)c4)c3c2)cn1 | inconclusive: 89.1 µM [inhibitor, partial curve, poor fit] |
| COc1cc(Cl)ccc1-c1cccc(COc2cnc3c(ccn3CC(=O)O)c2)c1 | active: 63.1 µM |
| O=C(NCC1CC1)c1cccc(OC2CN(Cc3ccc(OC(F)(F)F)cc3)C2)c1 | inconclusive: 17.8 µM [inhibitor, partial curve, poor fit] |
| COc1ccc(OCCCC(=O)OC(C)C(=O)Nc2ccccc2[N+](=O)[O-])cc1 (configuration not stated) | inconclusive: 126 µM [inhibitor, single point] |
| OCCNCC(O)CN1c2ccccc2Sc2ccccc21 (configuration not stated) | inconclusive: 89.1 µM [inhibitor, single point] |
| CCCCN(CCCC)C(=O)c1ccc(N)cc1 | active: 15.8 µM |
| CCC(C(=O)NCCn1ccn2nc(-c3cccc(OC)c3)cc2c1=O)c1ccccc1 (configuration not stated) | inactive |
| CCC(CC)C(=O)Nc1sc2c(c1C#N)CCCC2 | inconclusive: 44.7 µM [inhibitor, partial curve, poor fit] |
| CC1=NN(C(=O)CSCc2ccccc2)C(O)(c2ccccc2)C1 (configuration not stated) | inactive |
| CCCCNC(=O)C[C@@H]1C[C@@]2(C(=O)OCC)CCC=C2N(Cc2ccccc2)C1=O | inactive |
| Cc1ccsc1/C=C/C1=Cc2c(sc(NC(=O)CSc3n[nH]c(N)n3)c2C#N)C(C)(C)C1 | inconclusive: 35.5 µM [inhibitor, partial curve, poor fit] |
| CCCc1sc(C(=O)OC(C)C(=O)Nc2cc(C)on2)cc1CC (configuration not stated) | inactive |
| Cc1ccc(-n2ncc(C(=O)NCCc3ccccc3)c2C2CCN(C(=O)OC(C)(C)C)CC2)c(C)c1 | inconclusive: 63.1 µM [inhibitor, partial curve, poor fit] |
| CCN1CCCC1CNS(=O)(=O)c1cccc(C(F)(F)F)c1 (configuration not stated) | inconclusive: 63.1 µM [inhibitor, partial curve, poor fit] |
| COc1ccccc1C(=O)N(CCN(C)C)c1nc2cc(C)cc(C)c2s1 | inconclusive: 44.7 µM [inhibitor, partial curve, poor fit] |
| O=C(Nc1ccccc1)c1ccc(N2CCN(c3ccccc3)CC2)c(S(=O)(=O)N2CCOCC2)c1 | inactive |
| COC(=O)c1ccc2c(=O)[nH]c(CSc3nnc(-c4cccc(C)c4)n3Cc3ccco3)nc2c1 | inconclusive: 10 µM [inhibitor, full curve, poor fit] |
| COCOCCn1cc(CN2CCS(=O)(=O)N(Cc3ccc(-c4cccc(N(C)C)c4)cc3)C(C(C)C)C2=O)nn1 (configuration not stated) | inconclusive: 126 µM [inhibitor, single point] |
| O=C(COC(=O)CSc1ccc2ccccc2c1)NC1CC1 | inconclusive: 63.1 µM [inhibitor, partial curve, poor fit] |
| COc1ccc(Nc2cc(C)nc(Nc3ccc(NC(=O)CC(C)C)cc3)n2)cc1 | inconclusive: 44.7 µM [inhibitor, partial curve, poor fit] |
| CNC(=O)C1(N2CCC[C@H]2C(=O)NCC2CC2)COC1 | inactive |
| CCOC(=O)C1=C(C)NC(C)=C(C(=O)OCC)C1C(=O)OCC(=O)N1CCCCC1CC (configuration not stated) | inactive |

| Compound | Potency |
| --- | --- |
| CN(C)/C=C1\SC(=S)N(c2ccc(F)cc2)C1=O | inconclusive: 56.2 µM [inhibitor, partial curve, poor fit] |
| CC(=O)N1CCN([C@H]2[C@@H]3OC[C@@H](O3)[C@@H](NC(=O)Nc3ccccc3)[C@@H]2O)CC1 | inactive |
| O=c1nc(N2CCOCC2)ccn1-c1nc(-c2ccccc2)sc1-c1ccccc1 | inactive |
| CCOc1cc(/C=C2/NC(=O)NC2=O)cc(I)c1OC | inactive |
| CN(C)S(=O)(=O)c1ccc(C(=O)OCc2nnc(-c3ccccc3)o2)cc1 | inactive |
| O=c1oc2ccc(Cl)cc2cc1-c1nnc(Nc2cccc(C(F)(F)F)c2)s1 | inactive |
| Cc1nc(-c2ccc(S(=O)(=O)Nc3ccc(C#N)cc3)cc2)co1 | inconclusive: 70.8 µM [inhibitor, partial curve, poor fit] |
| CCOc1cc2c(c(F)c1OCC)C(=N)N(CC(=O)c1cc(N3CCOCC3)c(OC)c(C(C)(C)C)c1)C2 | inconclusive: 21.7 µM [inhibitor, partial curve] |
| c1ccc(-n2cc(CN3CCCC(CN4CCCC4)C3)c(-c3ccc4c(c3)OCO4)n2)cc1 (configuration not stated) | inconclusive: 100 µM [inhibitor, partial curve, poor fit] |
| CCOC(=O)Nc1ccc(NS(=O)(=O)c2ccc(F)cc2C)cc1 | active: 25.1 µM |
| S=c1[nH]c2cc3c(cc2[nH]1)OCCO3 | inconclusive: 63.1 µM [inhibitor, partial curve, poor fit] |
| N#C/C(=C\c1c(N2CCCCCC2)nc2ccccn2c1=O)C(=O)NCc1ccco1 | inconclusive: 20 µM [inhibitor, full curve, poor fit] |
| O=C(Nc1cc(S(=O)(=O)N2CCOCC2)ccc1NCC1CCCO1)NC1CCCCC1 (configuration not stated) | inactive |
| C#CCOCCOCCOCCNc1nc(N2CCN(C(=O)Cn3cc(CCCCN)nn3)CC2)nc(N2CCN(C(=O)Cn3cc(CCCCN)nn3)CC2)n1 | inconclusive: 35.5 µM [inhibitor, partial curve, poor fit] |
| CC(C)CN1C(=O)NC(NS(=O)(=O)c2ccc(N)cc2)(C(F)(F)F)C1=O (configuration not stated) | inactive |
| CCOC(=O)COC(=O)c1cc2c(s1)-c1ccc(OC)cc1CC2 | inconclusive: 35.5 µM [inhibitor, partial curve, poor fit] |
| C/C(CC(=O)Nc1ccc(Cl)cc1Cl)=N\NC(N)=S | inconclusive: 50.1 µM [inhibitor, partial curve, poor fit] |
| CCN1CCN(c2cc(C)c3cc(NC(=O)CCC4CCCC4)ccc3n2)CC1 | inconclusive: 44.7 µM [inhibitor, partial curve, poor fit] |
| COc1ccc(CN2C(=O)c3ccccc3C2=O)cc1C(=O)Nc1ccccc1N1CCOCC1 | inactive |
| CCOC(=O)c1cc(C)n(CC2CCC(C(=O)Nc3ccc(C(C)=O)cc3)CC2)c1C (configuration not stated) | inconclusive: 89.1 µM [inhibitor, partial curve, poor fit] |
| CCCCN(Cc1ccccc1)c1ccc(NS(=O)(=O)c2ccc(C)cc2C)cc1C(=O)O | inconclusive: 5.62 µM [inhibitor, full curve, poor fit] |

Some values from the results shown.
Potency with N#C/C(=C\c1c(N2CCCCCC2)nc2ccccn2c1=O)C(=O)NCc1ccco1 reads inconclusive: 20 µM [inhibitor, full curve, poor fit]
Potency with S=c1[nH]c2cc3c(cc2[nH]1)OCCO3 reads inconclusive: 63.1 µM [inhibitor, partial curve, poor fit]
Potency with COc1ccc(CN2C(=O)c3ccccc3C2=O)cc1C(=O)Nc1ccccc1N1CCOCC1 reads inactive

Some of the entries above in another layout:
Compound	Potency
CCOc1cc(/C=C2/NC(=O)NC2=O)cc(I)c1OC	inactive
CN(C)S(=O)(=O)c1ccc(C(=O)OCc2nnc(-c3ccccc3)o2)cc1	inactive
